These are yes or no findings as the source states them, for the method shown. In cells and extracts the contact can be indirect. Some entries that bind do so weakly or less than the wild type. For some assays here: Sequences can lack the tags named with a protein.

Amino acid sequences for entries named in this document (tags omitted).
UniProt Q96CW1: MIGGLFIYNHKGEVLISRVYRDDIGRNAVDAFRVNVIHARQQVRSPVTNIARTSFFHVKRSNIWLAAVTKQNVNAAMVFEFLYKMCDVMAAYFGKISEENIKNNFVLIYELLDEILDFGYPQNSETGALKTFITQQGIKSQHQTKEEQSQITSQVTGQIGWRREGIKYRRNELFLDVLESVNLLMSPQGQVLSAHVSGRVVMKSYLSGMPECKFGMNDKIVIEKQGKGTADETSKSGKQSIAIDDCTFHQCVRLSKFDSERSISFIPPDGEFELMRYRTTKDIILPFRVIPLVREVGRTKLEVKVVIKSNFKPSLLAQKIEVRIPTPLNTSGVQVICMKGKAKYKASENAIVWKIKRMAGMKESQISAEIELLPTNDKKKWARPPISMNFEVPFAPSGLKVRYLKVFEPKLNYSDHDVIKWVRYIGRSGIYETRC

Holding throughout (experiment): co-IP; HEK293T cells co-transfected with SynDIG (or IFITM3) and HA-tagged μAP subunit; lysate on α-HA magnetic beads for 90 min at RT; myc-tagged protein detected by immunoblot; values normalised to eluted μ protein and to input
A general note: In western blotting, separated proteins are transferred to a membrane and probed.

The target in assay [1] is T1, HA-tagged μ3a AP subunit (UniProt Q9Y2T2).
T1 sequence: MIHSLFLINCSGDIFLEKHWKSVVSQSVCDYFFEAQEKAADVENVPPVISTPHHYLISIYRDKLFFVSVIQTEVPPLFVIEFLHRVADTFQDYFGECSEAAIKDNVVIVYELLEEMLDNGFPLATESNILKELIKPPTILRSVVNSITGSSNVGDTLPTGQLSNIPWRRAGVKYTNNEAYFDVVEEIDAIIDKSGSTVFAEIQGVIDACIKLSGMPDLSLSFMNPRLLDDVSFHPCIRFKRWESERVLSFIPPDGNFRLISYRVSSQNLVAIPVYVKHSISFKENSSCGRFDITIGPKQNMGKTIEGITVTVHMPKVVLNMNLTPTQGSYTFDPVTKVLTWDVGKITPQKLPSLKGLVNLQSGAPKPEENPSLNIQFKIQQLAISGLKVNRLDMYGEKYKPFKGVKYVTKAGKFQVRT

In assay [2] the target is HA-tagged μ2 AP subunit (UniProt Q96CW1).
Assay [3] deals with T2, HA-tagged μ4 AP subunit (UniProt O00189).
T2 sequence: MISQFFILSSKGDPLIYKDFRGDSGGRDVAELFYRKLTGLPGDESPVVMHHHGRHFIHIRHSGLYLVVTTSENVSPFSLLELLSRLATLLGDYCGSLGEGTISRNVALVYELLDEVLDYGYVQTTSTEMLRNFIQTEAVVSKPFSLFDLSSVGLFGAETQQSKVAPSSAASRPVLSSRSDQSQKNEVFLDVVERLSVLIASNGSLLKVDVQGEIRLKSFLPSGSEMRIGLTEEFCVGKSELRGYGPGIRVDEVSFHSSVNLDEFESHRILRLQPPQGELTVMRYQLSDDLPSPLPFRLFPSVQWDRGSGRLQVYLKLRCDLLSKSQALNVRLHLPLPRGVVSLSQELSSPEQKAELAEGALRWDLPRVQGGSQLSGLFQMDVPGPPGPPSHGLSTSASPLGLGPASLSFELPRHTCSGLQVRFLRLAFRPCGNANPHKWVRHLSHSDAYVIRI

Assay [4] deals with T3, HA-tagged μ1a AP subunit (UniProt Q9BXS5).
T3 sequence: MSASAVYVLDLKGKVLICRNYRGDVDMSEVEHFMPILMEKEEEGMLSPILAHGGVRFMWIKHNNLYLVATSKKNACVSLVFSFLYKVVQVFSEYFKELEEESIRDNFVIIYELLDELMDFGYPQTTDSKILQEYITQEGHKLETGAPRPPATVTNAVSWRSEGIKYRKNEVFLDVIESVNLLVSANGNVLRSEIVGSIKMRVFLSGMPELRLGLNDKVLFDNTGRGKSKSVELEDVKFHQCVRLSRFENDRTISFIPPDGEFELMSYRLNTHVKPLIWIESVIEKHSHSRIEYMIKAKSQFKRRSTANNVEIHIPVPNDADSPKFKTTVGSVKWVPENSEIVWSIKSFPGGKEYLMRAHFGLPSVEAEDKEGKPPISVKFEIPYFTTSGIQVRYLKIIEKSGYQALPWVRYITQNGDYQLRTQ

B1: SynDIG2 (wild type) (protein, UniProt Q3USQ7 1-237)
chain: MESLSELQNPLLPRSPTHLHRPYPYPEAPPGWSCQEQLYSFLLGGAGPARAHQLLDPGSLQLAVEAWYRPSCLLGRDKVKEPKAGSCETSFTEAREPLAGPAEEGSEPGQAAEDVTIHTVSYGVQEELQGQEDSQEEESDGTSSESECEDAFLTLPPRDHLGLTLFSMLCCFWPLGIAAFYFSQGTSKAISKGDFRLASTTSRRALFLATLSIAVGAGLYVAVVVALAAYMSQNGHG
Take B1: the binding result in assay [1], in assay [2], in assay [3] and in assay [4] was “no binding” in each case.

B2: SynDIG4∆170–89 (protein, UniProt Q6MG82)
chain: MSSEKSGLPDSVPHTSPPPYNAPQPPAEPPIPPPQTAPSSHHHHHHHYHQSGTATLPRLGAGGLASAAAGAQRGPSSSATLPRPPHHAPPGPAAGAPPPGCATLPRMPPDPYLQETRFEGPLPPPPPAAAAPPPPAPAPTAQAPGFVVPTHAGAVGTLPLGGYVAPGYPSGTPGGPGVTSTLPPPPQGPGLALLEPRRPPHDYMPIAVLTTICCFWPTGIIAIFKAVQVRTALARGDLVSAEIASREARNFSFISLAVGIAAMVLCTILTVVIIIAAQHHENYWDP
In the case of B2, the binding entry in assay [2] is listed as “binds”.

The values are drawn from PMC11798926.
